This passage reports binding results from US9340584.

Sequences of proteins named here, by UniProt entry; tags and fusion partners are left off. Residues count along the entry.
UniProt P20273, residues 20-687: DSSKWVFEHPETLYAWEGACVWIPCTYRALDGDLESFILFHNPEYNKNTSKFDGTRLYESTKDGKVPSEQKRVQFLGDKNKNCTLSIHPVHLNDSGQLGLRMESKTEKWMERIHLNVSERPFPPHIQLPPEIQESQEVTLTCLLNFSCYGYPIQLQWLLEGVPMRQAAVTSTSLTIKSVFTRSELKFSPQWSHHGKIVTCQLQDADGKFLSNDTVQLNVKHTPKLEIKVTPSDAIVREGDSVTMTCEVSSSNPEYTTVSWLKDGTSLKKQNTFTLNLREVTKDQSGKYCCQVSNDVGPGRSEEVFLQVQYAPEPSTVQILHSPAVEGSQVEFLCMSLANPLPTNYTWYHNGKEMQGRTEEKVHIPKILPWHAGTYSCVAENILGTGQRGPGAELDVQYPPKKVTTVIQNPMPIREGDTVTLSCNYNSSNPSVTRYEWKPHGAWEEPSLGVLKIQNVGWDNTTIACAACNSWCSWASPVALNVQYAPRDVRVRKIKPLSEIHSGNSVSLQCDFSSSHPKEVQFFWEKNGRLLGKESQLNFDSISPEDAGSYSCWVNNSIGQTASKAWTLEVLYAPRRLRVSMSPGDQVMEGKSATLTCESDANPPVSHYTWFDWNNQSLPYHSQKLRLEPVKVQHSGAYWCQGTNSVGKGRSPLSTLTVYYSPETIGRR
UniProt P15391, residues 20-291: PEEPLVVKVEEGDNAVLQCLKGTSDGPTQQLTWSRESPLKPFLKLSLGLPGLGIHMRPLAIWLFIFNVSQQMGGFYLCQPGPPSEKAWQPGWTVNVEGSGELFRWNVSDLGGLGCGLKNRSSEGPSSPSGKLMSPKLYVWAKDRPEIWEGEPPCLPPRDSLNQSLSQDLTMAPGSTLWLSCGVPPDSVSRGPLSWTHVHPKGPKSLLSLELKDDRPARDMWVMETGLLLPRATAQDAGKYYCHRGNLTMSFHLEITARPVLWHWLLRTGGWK
UniProt P06127, residues 25-495: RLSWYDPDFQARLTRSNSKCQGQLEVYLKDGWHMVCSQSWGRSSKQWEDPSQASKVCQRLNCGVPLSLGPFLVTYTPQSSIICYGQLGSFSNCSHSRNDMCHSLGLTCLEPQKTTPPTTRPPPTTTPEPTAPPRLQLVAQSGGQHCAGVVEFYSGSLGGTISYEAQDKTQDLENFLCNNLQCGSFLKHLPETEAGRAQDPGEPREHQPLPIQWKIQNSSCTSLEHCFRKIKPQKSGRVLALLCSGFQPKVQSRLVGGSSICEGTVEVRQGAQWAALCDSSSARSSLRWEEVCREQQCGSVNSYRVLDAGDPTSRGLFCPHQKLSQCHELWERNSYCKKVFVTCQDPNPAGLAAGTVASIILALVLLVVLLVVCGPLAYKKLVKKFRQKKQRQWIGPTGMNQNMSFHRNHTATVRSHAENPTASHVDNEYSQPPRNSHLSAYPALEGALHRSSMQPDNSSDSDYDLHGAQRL
UniProt P02768, residues 25-609: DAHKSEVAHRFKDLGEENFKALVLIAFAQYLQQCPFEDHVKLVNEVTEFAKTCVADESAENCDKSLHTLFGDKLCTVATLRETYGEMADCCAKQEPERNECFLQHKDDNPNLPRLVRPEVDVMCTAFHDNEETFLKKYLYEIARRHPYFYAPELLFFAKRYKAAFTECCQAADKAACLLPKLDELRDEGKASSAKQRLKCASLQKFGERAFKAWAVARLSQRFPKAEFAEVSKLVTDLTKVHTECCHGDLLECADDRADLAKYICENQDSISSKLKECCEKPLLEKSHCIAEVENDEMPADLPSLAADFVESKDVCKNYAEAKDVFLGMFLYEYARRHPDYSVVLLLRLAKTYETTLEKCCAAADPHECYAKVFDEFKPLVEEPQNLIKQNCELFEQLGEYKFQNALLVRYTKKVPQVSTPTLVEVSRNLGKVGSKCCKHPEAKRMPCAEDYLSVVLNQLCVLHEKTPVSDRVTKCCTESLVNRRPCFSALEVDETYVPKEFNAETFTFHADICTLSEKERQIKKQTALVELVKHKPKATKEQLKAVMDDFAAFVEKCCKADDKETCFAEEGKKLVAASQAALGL

No constants are given. Whether binding was seen depends on the method and setting. Some binding calls cover weakened binding; strength is not graded here. For part of these data: Sequences can lack the tags named with a protein.

Assay [1] deals with ECD-CD5-SBP-H8. In words: phage display selection on ECD-CD5-SBP-H8.
The target of assay [2] is ECD-CD5-SBP-H8. In words: phage ELISA, biotinylated CD5 on streptavidin plate. For orientation: In an ELISA, binding on a coated surface is turned into a signal by an enzyme label.
For assay [3], the target named is ECD-CD5-SBP-H8. The experiment in a line: phage display selection from TRX-3 library.
The next assay has as its target CD22-Fc domain (UniProt P20273). The experiment in a line: phage display selection from TRX-3 library.
The target in the next assay is CD19-Fc domains (UniProt P15391). The experiment in a line: phage display selection from TRX-3 library.
In assay [4] the target is ECD-CD5-SBP-H8. The experiment in a line: phage display selection on bead-immobilised biotinylated ECD-CD5-SBP-H8.
Assay [5] deals with CD5 expressed on the cell surface (transfected HEK293T cells; Raji cells ectopically expressing wild type CD5) (UniProt P06127). The experiment in a line: cell-based phage ELISA, transfected HEK293T cells.
For assay [6] the target is unchanged. The experiment in a line: flow cytometry, fluorescein-labelled protein on Raji cells. On the technique in general: A flow cytometer gives signals particle by particle.
Assay [7] shares this target. In words: flow cytometry on Raji cells.
Assay [8] deals with human serum albumin (human) (UniProt P02768). In words: SPR, Biacore T100, compared with the wild type TRX fusion. On the technique in general: Surface plasmon resonance follows binding to a sensor surface in real time, without labels.
Assay [9] shares this target. The experiment in a line: SPR, Biacore T100, HSA on CM5 chip.

B1: CD5 binder E10 (TRX-3 library) (designed binder)
chain: MVKQIESKTAFQEALDAAGDKLVVVDFSATKERDSAWDDWSGPSKMIKPFFHSLSEKYSNVIFLEVDVDDAQDVASEAFYWSYPSLPPTFQFFKKGQKVGEFSGANKEKLEATINELV
Regarding B1, the binding result with ECD-CD5-SBP-H8 [1], with ECD-CD5-SBP-H8 [2] and with ECD-CD5-SBP-H8 [3] was “binds” in each case.

B2: CD22 binder A6 (TRX-3 library) (designed binder)
chain: MVKQIESKTAFQEALDAAGDKLVVVDFSATKEPTVIGFWWSGPSKMIKPFFHSLSEKYSNVIFLEVDVDDAQDVASEALSPLFNFPLPTFQFFKKGQKVGEFSGANKEKLEATINELV
Take B2: the binding result with CD22-Fc domain is recorded as “binds”.

B3: CD22 binder E1 (TRX-3 library) (designed binder)
chain: MVKQIESKTAFQEALDAAGDKLVVVDFSATNVRESHKRGWSGPSKMIKPFFHSLSEKYSNVIFLEVDVDDAQDVASEAVSMFVLDSWPTFQFFKKGQKVGEFSGANKEKLEATINELV
With B3, the binding result with CD22-Fc domain is on record as “binds”.

B4: CD5 binder A5 (TRX-3 library) (designed binder)
chain: MVKQIESKTAFQEALDAAGDKLVVVDFSATQCNTGESHDWSGPSKMIKPFFHSLSEKYSNVIFLEVDVDDAQDVASEAWSPLIMCTMPTFQFFKKGQKVGEFSGANKEKLEATINELV
Turning to B4, the binding entry with ECD-CD5-SBP-H8 [1], in the assay with ECD-CD5-SBP-H8 [2] and in the assay with ECD-CD5-SBP-H8 [3] was “binds” each time.

B5: CD19 binder A1 (TRX-3 library) (designed binder)
chain: MVKQIESKTAFQEALDAAGDKLVVVDFSATKRNDNTSDTWSGPSKMIKPFFHSLSEKYSNVIFLEVDVDDAQDVASEAFRRWNSRWGPTFQFFKKGQKVGEFSGANKEKLEATINELV
In the case of B5, in the assay with CD19-Fc domains, the binding result is “binds”.

B6: CD19 binder A5 (TRX-3 library) (designed binder)
chain: MVKQIESKTAFQEALDAAGDKLVVVDFSATGDEQLVGRRWSGPSKMIKPFFHSLSEKYSNVIFLEVDVDDAQDVASEAFRRWNSRWGPTFQFFKKGQKVGEFSGANKEKLEATINELV
For B6, the binding result with CD19-Fc domains is “binds”.

B7: CD5 binder A1 (TRX-3 library) (designed binder)
chain: MVKQIESKTAFQEALDAAGDKLVVVDFSATQWWGWIDGQWSGPSKMIKPFFHSLSEKYSNVIFLEVDVDDAQDVASEAYPLFGMAALPTFQFFKKGQKVGEFSGANKEKLEATINELV
Regarding B7, the binding result in the assay with ECD-CD5-SBP-H8 [1], with ECD-CD5-SBP-H8 [2] and with ECD-CD5-SBP-H8 [3] was “binds” throughout.

B8: CD5 binder E6 (TRX-3 library), phage-displayed (designed binder)
chain: MVKQIESKTAFQEALDAAGDKLVVVDFSATNTIKHGGSRWSGPSKMIKPFFHSLSEKYSNVIFLEVDVDDAQDVASEAEKGILVSPLPTFQFFKKGQKVGEFSGANKEKLEATINELV
For B8, the binding entry (with ECD-CD5-SBP-H8 [4]; with ECD-CD5-SBP-H8 [2]; with ECD-CD5-SBP-H8 [3]; in [5]) was “binds” each time.

B9: free E6 protein (CD5 binder E6, purified) (designed binder)
chain: MVKQIESKTAFQEALDAAGDKLVVVDFSATNTIKHGGSRWSGPSKMIKPFFHSLSEKYSNVIFLEVDVDDAQDVASEAEKGILVSPLPTFQFFKKGQKVGEFSGANKEKLEATINELV
modifications: labelled with NHS-fluorescein (sites not given)
Take B9: the binding entry in [6] and in assay [7] was “binds” in each case.

B10: RLuc-F3 (protein, not shown: large carriers)
chain: MVKQIESKTAFQEALDAAGDKLVVVDFSATGGTPGRRNRWSGPSKMIKPFFHSLSEKYSNVIFLEVDVDDAQDVASEAFCEFCFPFLPTFQFFKKGQKVGEFSGANKEKLEATINELV
On to B10, for which the binding result in assay [8] and in [9] was “binds” each time.

B11: CD22 binder A4 (TRX-3 library) (designed binder)
chain: MVKQIESKTAFQEALDAAGDKLVVVDFSATRDPNNCRGTWSGPSKMIKPFFHSLSEKYSNVIFLEVDVDDAQDVASEACVLYSVGYAPTFQFFKKGQKVGEFSGANKEKLEATINELV
Consider B11, for which the binding entry with CD22-Fc domain is “binds”.

B12: RLuc-H6 (protein, not shown: large carriers)
chain: MVKQIESKTAFQEALDAAGDKLVVVDFSATDRKPWKTRGWSGPSKMIKPFFHSLSEKYSNVIFLEVDVDDAQDVASEAFGLFSFPLLPTFQFFKKGQKVGEFSGANKEKLEATINELV
Take B12: the binding result in assay [8] and in [9] was “binds” each time.
